# This is one part of the list.
# B1: GS13599A-bth-520-23-520 (Bacteroides thetaiotaomicron) (protein)
# chain: SEDTMDRINKDHDHTTSVASRFILADVITSTAFSNASGDINTYASSYIEYEVGVDNQLYYAEVRENEPSSSSTFNNSWNGIYSSLKNARIIIDQCGEGGRDHGNDVTRGMAEVMAAYNCALIADFFGDAPCSQAALVDEKGSPVYMTPKMDTQQEIYTQIISYLDDAIANLQKEDLADVTEQDFLYAGDADKWLKFAYGLKARYTMRLINRSSNKSADYEKVLDYVSKSFTSADDQAAFDIYDSNNINPFYGFYNSRAGFGASTSLGTKLLAYNDPRANRAFFTPIVDKKRSQVAANDPSLVPAPNGSPDQSTSKYGISAFVYAKTAPTLLMSYHELMFLKAEALCRLNRDAEDALKEAVVAGLLNAENSISIAIKELGSGLNTNSSEVITETSAGKYFDDVVKAKYAANPLQETMIQKYLAMWGASGEATETYNDFRRMKGLNENFITLTNPNNSSKFPLRYPYGNSDTAANPEVKAAYGNGDYVYSEPVWWAGGSR
# Assays:
# Test in all cases: glycan array binding signal (z-score within array); higher = stronger binding
# Conditions in all cases: glycan notation: IUPAC condensed, linker removed
# [1] = molecular target: Gal6S(b1-4)Glc6S
# Procedure, shortened: (§1)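 From the Consortium for Functional Glycomics database, 3228 arrays were curated, keeping only those whose protein sequence was available. Binding is given as a within-array Z-score averaged across arrays sharing a protein sequence and across linkers. Negative Z-scores can be read as non-binding.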
# [2] = molecular target: Gal6S(b1-4)GlcNAc
# Procedure, shortened: as §1
# [3] = molecular target: Gal6S(b1-4)GlcNAc6S
# Procedure, shortened: as §1
# [4] = molecular target: GalNAc(a1-3)Gal
# Procedure, shortened: as §1
# [5] = molecular target: GalNAc(a1-3)GalNAc
# Procedure, shortened: as §1
# [6] = molecular target: GalNAc(a1-3)GalNAc(b1-3)Gal(a1-4)Gal(b1-4)Glc
# Procedure, shortened: as §1
# [7] = molecular target: GalNAc(a1-3)GalNAc(b1-3)Gal(a1-4)Gal(b1-4)GlcNAc
# Procedure, shortened: as §1
# [8] = molecular target: GalNAc(b1-3)Gal
# Procedure, shortened: as §1
# [9] = molecular target: GalNAc(b1-3)Gal(a1-4)Gal(b1-4)GlcNAc
# Procedure, shortened: as §1
# [10] = molecular target: GalNAc(b1-3)Gal(a1-4)Gal(b1-4)GlcNAc(b1-3)Gal(b1-4)Glc
# Procedure, shortened: as §1
# [11] = molecular target: GalNAc(b1-3)Gal(a1-6)Gal(b1-4)Glc
# Procedure, shortened: as §1
# [12] = molecular target: GalNAc(b1-3)GalNAc
# Procedure, shortened: as §1
# [13] = molecular target: GalNAc(b1-3)GlcNAc
# Procedure, shortened: as §1
# [14] = molecular target: GalNAc(b1-4)Gal(b1-4)Glc
# Procedure, shortened: as §1
# [15] = molecular target: GalNAc(b1-4)GlcNAc
# Procedure, shortened: as §1
# [16] = molecular target: GalNAc(b1-4)GlcNAc(b1-2)Man
# Procedure, shortened: as §1
# [17] = molecular target: GalNAc(b1-4)GlcNAc(b1-2)Man(a1-3)[GalNAc(b1-4)GlcNAc(b1-2)Man(a1-6)]Man(b1-4)GlcNAc(b1-4)GlcNAc
# Procedure, shortened: as §1
# [18] = molecular target: GalNAc(b1-4)GlcNAc(b1-3)GalNAc(b1-4)GlcNAc
# Procedure, shortened: as §1
# [19] = molecular target: GalNAc(b1-4)GlcNAc6S
# Procedure, shortened: as §1
# [20] = molecular target: GalNAc(b1-6)GalNAc
# Procedure, shortened: as §1
# [21] = molecular target: GalNAc3S(b1-4)GlcNAc
# Procedure, shortened: as §1
# [22] = molecular target: GalNAc3S(b1-4)GlcNAc3S
# Procedure, shortened: as §1
# [23] = molecular target: GalNAc3S(b1-4)[Fuc(a1-3)]GlcNAc
# Procedure, shortened: as §1
# [24] = molecular target: GalNAc4S6S(b1-4)GlcNAc
# Procedure, shortened: as §1
# [25] = molecular target: GalNAc6S(b1-4)GlcNAc
# Procedure, shortened: as §1
# [26] = molecular target: Glc(a1-4)Glc
# Procedure, shortened: as §1
# [27] = molecular target: Glc(a1-4)Glc(a1-4)Glc(a1-4)Glc
# Procedure, shortened: as §1
# [28] = molecular target: Glc(a1-6)Glc(a1-6)Glc
# Procedure, shortened: as §1
# [29] = molecular target: Glc(a1-6)Glc(a1-6)Glc(a1-6)Glc
# Procedure, shortened: as §1
# [30] = molecular target: Glc(b1-4)Glc
# Procedure, shortened: as §1
# [31] = molecular target: Glc(b1-6)Glc
# Procedure, shortened: as §1
# [32] = molecular target: GlcA(b1-3)Gal
# Procedure, shortened: as §1
# [33] = molecular target: GlcA(b1-3)GlcNAc
# Procedure, shortened: as §1
# [34] = molecular target: GlcA(b1-6)Gal
# Procedure, shortened: as §1
# [35] = molecular target: GlcA3S(b1-3)Gal(b1-4)GlcNAc(b1-2)Man
# Procedure, shortened: as §1
# [36] = molecular target: GlcA3S(b1-3)Gal(b1-4)GlcNAc(b1-3)Gal(b1-4)Glc
# Procedure, shortened: as §1
# [37] = molecular target: GlcNAc(a1-3)Gal(b1-4)GlcNAc
# Procedure, shortened: as §1
binder,measurement,setting,value
B1,glycan array binding signal (z-score),[1],0.258
same,glycan array binding signal (z-score),[2],-0.54
same,glycan array binding signal (z-score),[3],0.445
same,glycan array binding signal (z-score),[4],-0.129
same,glycan array binding signal (z-score),[5],-0.636
same,glycan array binding signal (z-score),[6],-1.22
same,glycan array binding signal (z-score),[7],0.714
same,glycan array binding signal (z-score),[8],0.44
same,glycan array binding signal (z-score),[9],-1.25
same,glycan array binding signal (z-score),[10],-0.224
same,glycan array binding signal (z-score),[11],-1.35
same,glycan array binding signal (z-score),[12],-1.13
same,glycan array binding signal (z-score),[13],-0.074
same,glycan array binding signal (z-score),[14],1.02
same,glycan array binding signal (z-score),[15],1.11
same,glycan array binding signal (z-score),[16],2.03
same,glycan array binding signal (z-score),[17],-1.1
same,glycan array binding signal (z-score),[18],-0.499
same,glycan array binding signal (z-score),[19],-0.23
same,glycan array binding signal (z-score),[20],-0.769
same,glycan array binding signal (z-score),[21],0.897
same,glycan array binding signal (z-score),[22],1.12
same,glycan array binding signal (z-score),[23],2.41
same,glycan array binding signal (z-score),[24],-1.28
same,glycan array binding signal (z-score),[25],1.23
same,glycan array binding signal (z-score),[26],-0.751
same,glycan array binding signal (z-score),[27],-0.024
same,glycan array binding signal (z-score),[28],0.175
same,glycan array binding signal (z-score),[29],-0.044
same,glycan array binding signal (z-score),[30],0.031
same,glycan array binding signal (z-score),[31],-0.602
same,glycan array binding signal (z-score),[32],-1.08
same,glycan array binding signal (z-score),[33],-0.356
same,glycan array binding signal (z-score),[34],1.77
same,glycan array binding signal (z-score),[35],-0.448
same,glycan array binding signal (z-score),[36],0.88
same,glycan array binding signal (z-score),[37],-0.66

# A section of the results above, as a working copy:
binder,measurement,setting,value
B1,glycan array binding signal (z-score),[3],0.445
same,glycan array binding signal (z-score),[4],-0.129

# Reference: the supplement of paper PMC8728848
